± gives the standard deviation of the averaged measurements. This is a selection; strong and weak results do not stand in their true shares.

The chains behind the UniProt entries cited, without tags or fusion partners. Where a name states a change or a piece, a line headed by the entry shows the natural chain unless it says otherwise.
UniProt Q9UHY7: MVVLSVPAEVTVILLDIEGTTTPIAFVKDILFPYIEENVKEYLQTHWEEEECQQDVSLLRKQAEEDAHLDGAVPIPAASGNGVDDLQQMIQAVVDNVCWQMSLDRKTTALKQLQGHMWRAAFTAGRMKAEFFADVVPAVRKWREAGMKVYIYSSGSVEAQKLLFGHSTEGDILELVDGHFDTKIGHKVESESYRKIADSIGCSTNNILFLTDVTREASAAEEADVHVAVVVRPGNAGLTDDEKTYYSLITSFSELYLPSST
UniProt Q9UPN7: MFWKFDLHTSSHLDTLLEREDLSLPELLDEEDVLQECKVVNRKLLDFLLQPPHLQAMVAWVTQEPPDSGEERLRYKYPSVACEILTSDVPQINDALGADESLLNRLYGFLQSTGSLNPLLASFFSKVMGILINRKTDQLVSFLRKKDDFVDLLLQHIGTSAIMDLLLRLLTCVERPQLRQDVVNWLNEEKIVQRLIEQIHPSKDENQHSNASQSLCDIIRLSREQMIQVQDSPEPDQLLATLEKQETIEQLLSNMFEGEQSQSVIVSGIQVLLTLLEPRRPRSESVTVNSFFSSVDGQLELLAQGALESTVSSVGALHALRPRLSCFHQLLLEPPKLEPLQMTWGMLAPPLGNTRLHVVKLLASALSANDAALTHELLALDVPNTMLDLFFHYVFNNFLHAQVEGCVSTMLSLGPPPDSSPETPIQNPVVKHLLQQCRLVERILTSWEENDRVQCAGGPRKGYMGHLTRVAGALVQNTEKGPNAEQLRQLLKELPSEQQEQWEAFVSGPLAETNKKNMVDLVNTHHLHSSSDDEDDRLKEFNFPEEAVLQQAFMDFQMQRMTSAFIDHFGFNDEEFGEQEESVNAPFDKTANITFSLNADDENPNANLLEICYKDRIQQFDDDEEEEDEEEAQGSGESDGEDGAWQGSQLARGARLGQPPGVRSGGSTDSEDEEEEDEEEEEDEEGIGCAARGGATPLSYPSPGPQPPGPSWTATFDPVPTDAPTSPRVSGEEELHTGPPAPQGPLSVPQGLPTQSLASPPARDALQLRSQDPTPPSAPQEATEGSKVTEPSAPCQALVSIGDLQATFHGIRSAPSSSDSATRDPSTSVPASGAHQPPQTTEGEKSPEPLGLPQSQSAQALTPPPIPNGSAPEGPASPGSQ
UniProt Q9UMY1: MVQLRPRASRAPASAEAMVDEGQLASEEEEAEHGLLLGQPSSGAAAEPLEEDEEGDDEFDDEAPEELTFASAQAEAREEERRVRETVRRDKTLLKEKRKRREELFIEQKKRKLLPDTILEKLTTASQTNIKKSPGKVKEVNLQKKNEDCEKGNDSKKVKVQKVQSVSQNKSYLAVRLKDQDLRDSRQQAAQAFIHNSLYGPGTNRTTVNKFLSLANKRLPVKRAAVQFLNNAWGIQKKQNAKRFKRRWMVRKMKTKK
UniProt Q9UQ49: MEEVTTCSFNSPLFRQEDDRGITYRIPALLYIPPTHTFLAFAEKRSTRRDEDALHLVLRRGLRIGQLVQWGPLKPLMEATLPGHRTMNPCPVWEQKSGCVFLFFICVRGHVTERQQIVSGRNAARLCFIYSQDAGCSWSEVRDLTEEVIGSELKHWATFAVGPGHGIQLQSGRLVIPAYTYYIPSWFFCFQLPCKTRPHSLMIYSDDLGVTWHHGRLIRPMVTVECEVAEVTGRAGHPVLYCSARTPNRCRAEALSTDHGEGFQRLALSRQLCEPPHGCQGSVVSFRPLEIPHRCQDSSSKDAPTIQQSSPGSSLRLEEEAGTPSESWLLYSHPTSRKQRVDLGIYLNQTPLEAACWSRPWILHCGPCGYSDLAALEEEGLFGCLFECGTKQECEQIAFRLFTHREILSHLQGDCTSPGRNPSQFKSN
UniProt Q9Y228: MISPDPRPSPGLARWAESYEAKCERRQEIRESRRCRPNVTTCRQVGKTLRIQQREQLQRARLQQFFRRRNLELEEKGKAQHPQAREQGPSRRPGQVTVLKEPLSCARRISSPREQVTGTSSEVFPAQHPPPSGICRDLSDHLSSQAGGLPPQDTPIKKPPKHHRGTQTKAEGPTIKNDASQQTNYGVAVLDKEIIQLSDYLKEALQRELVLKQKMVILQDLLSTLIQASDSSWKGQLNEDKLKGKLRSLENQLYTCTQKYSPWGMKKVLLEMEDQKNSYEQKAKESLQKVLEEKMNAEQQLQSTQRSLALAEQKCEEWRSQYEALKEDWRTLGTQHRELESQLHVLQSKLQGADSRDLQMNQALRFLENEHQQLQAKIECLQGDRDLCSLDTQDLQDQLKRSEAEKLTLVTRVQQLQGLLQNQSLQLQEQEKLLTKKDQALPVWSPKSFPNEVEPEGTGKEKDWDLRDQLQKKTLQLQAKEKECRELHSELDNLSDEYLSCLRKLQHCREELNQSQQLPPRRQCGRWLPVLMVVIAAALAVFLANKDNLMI
UniProt Q9ULX3: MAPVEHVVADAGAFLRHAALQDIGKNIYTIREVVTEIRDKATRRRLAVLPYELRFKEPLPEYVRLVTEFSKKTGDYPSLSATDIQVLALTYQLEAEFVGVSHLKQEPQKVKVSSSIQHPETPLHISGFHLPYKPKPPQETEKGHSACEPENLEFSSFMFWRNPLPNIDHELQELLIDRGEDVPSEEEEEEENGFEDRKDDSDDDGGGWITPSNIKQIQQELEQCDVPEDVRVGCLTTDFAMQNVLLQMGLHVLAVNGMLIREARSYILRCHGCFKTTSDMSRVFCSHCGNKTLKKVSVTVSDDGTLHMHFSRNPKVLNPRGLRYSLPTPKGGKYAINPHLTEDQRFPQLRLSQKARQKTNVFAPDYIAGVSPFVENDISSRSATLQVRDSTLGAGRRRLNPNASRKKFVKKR
UniProt Q9UBS8: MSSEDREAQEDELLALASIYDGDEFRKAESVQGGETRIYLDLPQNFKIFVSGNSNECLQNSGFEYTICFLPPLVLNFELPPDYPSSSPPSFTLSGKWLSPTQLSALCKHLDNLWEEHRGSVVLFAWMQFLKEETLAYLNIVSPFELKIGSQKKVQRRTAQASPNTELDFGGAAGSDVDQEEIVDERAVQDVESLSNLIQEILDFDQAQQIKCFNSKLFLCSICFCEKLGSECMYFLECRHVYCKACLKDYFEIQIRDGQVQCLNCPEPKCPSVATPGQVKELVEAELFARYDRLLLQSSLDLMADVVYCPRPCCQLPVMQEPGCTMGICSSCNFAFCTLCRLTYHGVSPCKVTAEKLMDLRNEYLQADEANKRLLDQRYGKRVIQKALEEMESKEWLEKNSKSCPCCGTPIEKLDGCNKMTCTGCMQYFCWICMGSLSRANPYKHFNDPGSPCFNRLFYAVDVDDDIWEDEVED
UniProt Q9ULW0, whole entry: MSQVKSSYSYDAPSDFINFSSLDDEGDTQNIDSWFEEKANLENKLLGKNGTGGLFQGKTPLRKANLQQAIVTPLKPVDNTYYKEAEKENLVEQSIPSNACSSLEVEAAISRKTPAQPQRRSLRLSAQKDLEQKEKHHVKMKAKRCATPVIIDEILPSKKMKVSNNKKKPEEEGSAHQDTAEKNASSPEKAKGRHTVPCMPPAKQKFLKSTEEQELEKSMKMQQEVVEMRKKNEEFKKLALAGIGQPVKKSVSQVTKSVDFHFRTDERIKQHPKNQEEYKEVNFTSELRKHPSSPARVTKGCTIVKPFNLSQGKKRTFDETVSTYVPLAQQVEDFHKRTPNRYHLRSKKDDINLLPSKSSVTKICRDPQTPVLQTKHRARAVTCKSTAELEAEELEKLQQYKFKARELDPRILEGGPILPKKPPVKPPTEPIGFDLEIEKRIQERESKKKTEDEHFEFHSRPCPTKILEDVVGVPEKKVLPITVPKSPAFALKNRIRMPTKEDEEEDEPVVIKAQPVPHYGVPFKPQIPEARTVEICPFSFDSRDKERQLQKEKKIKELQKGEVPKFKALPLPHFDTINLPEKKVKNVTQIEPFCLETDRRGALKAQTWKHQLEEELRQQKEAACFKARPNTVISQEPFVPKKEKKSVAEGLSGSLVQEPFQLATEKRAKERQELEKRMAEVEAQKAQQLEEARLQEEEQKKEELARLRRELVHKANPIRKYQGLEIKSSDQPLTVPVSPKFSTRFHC
UniProt Q9UKN8: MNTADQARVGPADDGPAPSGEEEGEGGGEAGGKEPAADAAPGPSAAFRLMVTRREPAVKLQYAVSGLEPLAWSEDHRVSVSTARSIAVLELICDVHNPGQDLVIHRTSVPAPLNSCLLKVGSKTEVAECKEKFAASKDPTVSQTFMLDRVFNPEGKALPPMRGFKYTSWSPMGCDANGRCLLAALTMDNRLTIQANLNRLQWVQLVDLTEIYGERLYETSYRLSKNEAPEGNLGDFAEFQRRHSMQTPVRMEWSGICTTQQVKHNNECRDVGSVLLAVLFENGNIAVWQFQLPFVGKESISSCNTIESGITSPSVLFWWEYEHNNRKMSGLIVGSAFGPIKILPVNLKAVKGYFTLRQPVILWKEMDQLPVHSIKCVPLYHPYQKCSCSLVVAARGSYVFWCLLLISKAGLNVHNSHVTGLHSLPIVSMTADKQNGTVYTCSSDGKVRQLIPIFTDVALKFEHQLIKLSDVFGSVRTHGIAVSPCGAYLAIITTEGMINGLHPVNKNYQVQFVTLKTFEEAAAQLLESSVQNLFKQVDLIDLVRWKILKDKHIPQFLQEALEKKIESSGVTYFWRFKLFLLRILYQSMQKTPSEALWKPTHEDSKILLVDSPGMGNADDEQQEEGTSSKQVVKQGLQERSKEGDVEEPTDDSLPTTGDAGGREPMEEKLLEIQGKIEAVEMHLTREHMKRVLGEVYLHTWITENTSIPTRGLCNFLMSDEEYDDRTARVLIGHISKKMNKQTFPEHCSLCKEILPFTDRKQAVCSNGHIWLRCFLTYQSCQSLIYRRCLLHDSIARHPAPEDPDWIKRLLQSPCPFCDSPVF
UniProt Q9Y320, whole entry: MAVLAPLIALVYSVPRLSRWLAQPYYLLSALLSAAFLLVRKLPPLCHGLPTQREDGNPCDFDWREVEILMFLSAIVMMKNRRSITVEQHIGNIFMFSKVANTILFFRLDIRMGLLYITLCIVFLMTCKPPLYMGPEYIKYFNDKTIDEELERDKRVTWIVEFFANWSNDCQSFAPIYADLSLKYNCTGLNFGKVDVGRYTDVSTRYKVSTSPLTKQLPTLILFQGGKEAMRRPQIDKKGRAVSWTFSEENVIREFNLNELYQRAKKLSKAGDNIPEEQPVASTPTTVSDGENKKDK
UniProt Q9UI09, whole entry: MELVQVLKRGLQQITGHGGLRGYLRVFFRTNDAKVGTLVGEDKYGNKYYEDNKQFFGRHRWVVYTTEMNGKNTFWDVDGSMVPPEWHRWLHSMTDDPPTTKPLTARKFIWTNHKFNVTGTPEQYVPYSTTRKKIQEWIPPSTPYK
UniProt Q9UNS1: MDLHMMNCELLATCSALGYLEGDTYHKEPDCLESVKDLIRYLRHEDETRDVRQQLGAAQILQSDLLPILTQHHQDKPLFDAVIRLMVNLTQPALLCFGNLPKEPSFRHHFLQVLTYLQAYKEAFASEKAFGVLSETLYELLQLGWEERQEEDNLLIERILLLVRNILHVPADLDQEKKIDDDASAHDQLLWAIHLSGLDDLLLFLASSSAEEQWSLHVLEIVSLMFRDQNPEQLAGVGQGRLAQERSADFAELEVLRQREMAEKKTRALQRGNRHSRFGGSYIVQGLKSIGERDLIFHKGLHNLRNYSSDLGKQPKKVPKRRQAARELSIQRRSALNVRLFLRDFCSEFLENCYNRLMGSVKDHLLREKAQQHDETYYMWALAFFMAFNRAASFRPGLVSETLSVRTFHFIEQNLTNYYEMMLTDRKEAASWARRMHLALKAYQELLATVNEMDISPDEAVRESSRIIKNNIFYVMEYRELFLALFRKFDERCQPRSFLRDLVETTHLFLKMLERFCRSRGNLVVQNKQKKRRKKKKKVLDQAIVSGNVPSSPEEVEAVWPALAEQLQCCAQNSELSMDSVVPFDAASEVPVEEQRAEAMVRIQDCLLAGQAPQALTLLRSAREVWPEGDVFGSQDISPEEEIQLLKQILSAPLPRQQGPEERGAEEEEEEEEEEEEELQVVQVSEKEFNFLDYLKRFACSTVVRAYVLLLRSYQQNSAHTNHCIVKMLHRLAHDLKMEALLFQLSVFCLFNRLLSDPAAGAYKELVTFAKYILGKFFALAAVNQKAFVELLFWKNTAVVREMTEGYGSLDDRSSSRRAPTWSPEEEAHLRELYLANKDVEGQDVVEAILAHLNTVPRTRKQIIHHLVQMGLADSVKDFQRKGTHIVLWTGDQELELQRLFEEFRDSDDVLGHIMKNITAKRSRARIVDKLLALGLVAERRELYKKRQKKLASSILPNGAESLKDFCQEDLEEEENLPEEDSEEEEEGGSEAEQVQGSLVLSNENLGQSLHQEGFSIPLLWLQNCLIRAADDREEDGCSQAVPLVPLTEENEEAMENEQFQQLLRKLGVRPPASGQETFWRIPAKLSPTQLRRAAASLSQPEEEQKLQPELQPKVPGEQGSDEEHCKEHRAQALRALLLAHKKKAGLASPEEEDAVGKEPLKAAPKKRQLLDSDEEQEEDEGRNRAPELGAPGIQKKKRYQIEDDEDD

This is an account of results in the supplement of paper PMC6411743.

Compound in the first assay: Nc1ncnc2c1ncn2[C@@H]1O[C@H](COP(=O)(O)OP(=O)(O)NP(=O)(O)O)[C@@H](O)[C@H]1O [adenylyl imidodiphosphate]
The assay can be described thus: NP40-soluble protein abundance relative to vehicle (solubility fold change) (ratio); higher = more soluble protein in presence of AMP-PNP. The following applies: concentration: 1mM. The method in brief: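 In three independent experiments, Jurkat crude lysate made by Dounce homogenisation was treated for 10 min at room temperature and then 3 min at 37 °C with eight concentrations ranging from 0.1 to 10 mM. It was then solubilised with 0.8% NP40 plus benzonase for 60 min at 4 °C and ultracentrifuged. The supernatant was TMT-labelled for LC-MS/MS, and each value is the fold change against the detergent-processed vehicle for the same replicate, using vsn-normalised intensities.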
As to ENOPH1 (UniProt Q9UHY7), the NP40-soluble protein abundance was found to be 1.04 ± 0.02.

Regarding UniProt Q9UPN7, the NP40-soluble protein abundance is 0.999 ± 0.044.

For the target NOL7 (UniProt Q9UMY1), the NP40-soluble protein abundance came out at 1.01 ± 0.025.

On to UniProt Q9UJZ1 and related entries, for which the NP40-soluble protein abundance was 0.971 ± 0.063.

Take UniProt Q9UI12 and related entries: the NP40-soluble protein abundance came to 1.02 ± 0.02.

With UniProt Q9UQ49 and related entries, the NP40-soluble protein abundance came to 1.01 ± 0.022.

Turning to TRAF3IP3 (UniProt Q9Y228), the NP40-soluble protein abundance came to 0.995 ± 0.028.

Take UniProt Q9Y2Z2 and related entries: the NP40-soluble protein abundance was found to be 0.958 ± 0.026.

Regarding PACSIN3 (UniProt Q9UKS6), the NP40-soluble protein abundance was determined as 1.02 ± 0.066.

For the target NOB1 (UniProt Q9ULX3), the NP40-soluble protein abundance was 0.972 ± 0.013.

For the target MRPS28 (UniProt Q9Y2Q9), the NP40-soluble protein abundance was 0.997 ± 0.08.

The assay is the same for the next values; noted with them: concentration: 2mM.
Regarding UniProt Q9UBS8 and related entries, the NP40-soluble protein abundance was 0.981 ± 0.095.

Regarding TPX2 (UniProt Q9ULW0), the NP40-soluble protein abundance came out at 1.2 ± 0.077.

Regarding NSFL1C (UniProt Q9UNZ2), the NP40-soluble protein abundance worked out at 1.02 ± 0.047.

Take AASS (UniProt Q9UDR5): the NP40-soluble protein abundance is 0.935 ± 0.098.

GINS2 (UniProt Q9Y248): the NP40-soluble protein abundance came out at 0.992 ± 0.021.

With UniProt Q9UNF0 and related entries, the NP40-soluble protein abundance was 1.07 ± 0.049.

Consider GTF3C4 (UniProt Q9UKN8), for which the NP40-soluble protein abundance amounted to 0.967 ± 0.11.

Turning to UniProt Q9Y282 and related entries, the NP40-soluble protein abundance came out at 1.03 ± 0.028.

Turning to UniProt Q9Y320 and related entries, the NP40-soluble protein abundance worked out at 0.89 ± 0.056.

As for UniProt Q9UJX6 and related entries, the NP40-soluble protein abundance came to 0.914 ± 0.028.

Consider NDUFA12 (UniProt Q9UI09), for which the NP40-soluble protein abundance was found to be 0.974 ± 0.051.

UniProt Q9UNS1 and related entries: the NP40-soluble protein abundance was 0.97 ± 0.054.

Take TBK1 (UniProt Q9UHD2): the NP40-soluble protein abundance worked out at 0.941 ± 0.051.

Consider SMC3 (UniProt Q9UQE7), for which the NP40-soluble protein abundance came out at 1.02 ± 0.015.

UniProt Q9ULR0 and related entries: the NP40-soluble protein abundance is 1.07 ± 0.05.
